Taken from: PubChem BioAssay AID504791 (Drosophila RNAi Screening Center, 2011)
Assay: 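Genes of the fly required for silencing by miRNA, siRNA or endo-siRNA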 (primary screen). Cells: Drosophila S2-derived reporter cells. Reagents: long dsRNA against Drosophila genes, about 150-250 ng dsRNA per well (siRNA assay); about 80-120 ng (miRNA assay). Time to read-out: about 5 days (siRNA assay); about 4 days (miRNA assay). Treatment: copper sulfate induction of reporters: 25 µM (siRNA assay); 200 mM stated (miRNA assay), 1-2 days before reading. Read-out: 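Dual luciferase assay: Renilla to firefly signal ratio in each well, scaled to the mean ratio of its plate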. Active means: 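a well was a first-pass pick when its plate-scaled ratio rose above 1.5 (siRNA assay) or 1.6 (miRNA assay), or dropped below 0.6; a gene counted only if two separate dsRNAs agreed on retest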.
The screen tested about 23,000 reagents; below is an unselected part of those with a known target gene and a result. Over the whole deposit, 199 (0.86%) are marked active. 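Plate-scaled ratios behind the calls are not deposited; printed light signals are raw; many rows marked increased or decreased are still called inactive.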 Entries without a mark were called inactive. Reagents against one gene are numbered here. No sequences are given here. The record does not give: the direction of the score.

After knock-down of peg the results were stable assay Renilla, run 1 (luminescence) = 8038; stable assay firefly, run 1 (luminescence) = 3.35e5.
After knock-down of CG13722 #1, the record shows stable assay Renilla, run 1 (luminescence) = 5842; stable assay firefly, run 1 (luminescence) = 4.21e5.
For CG13722 #2 the deposit lists stable assay Renilla, run 1 (luminescence) = 7922; stable assay firefly, run 1 (luminescence) = 4.45e5.
Depletion of CG31624 came out at: stable assay Renilla, run 1 (luminescence) = 10579; stable assay firefly, run 1 (luminescence) = 6.01e5.
With knock-down of CG4286, the screen gave stable assay Renilla, run 1 (luminescence) = 6771; stable assay firefly, run 1 (luminescence) = 4.45e5.
For CG42335 #1 the deposit lists stable assay Renilla, run 1 (luminescence) = 7371; stable assay firefly, run 1 (luminescence) = 3.61e5.
Against CG42335 #2, the values are stable assay Renilla, run 1 (luminescence) = 6619; stable assay firefly, run 1 (luminescence) = 3.26e5.
Depletion of RabX6 resulted in: stable assay Renilla, run 1 (luminescence) = 5594; stable assay firefly, run 1 (luminescence) = 3.85e5.
With knock-down of CG30376, the screen gave stable assay Renilla, run 1 (luminescence) = 4619; stable assay firefly, run 1 (luminescence) = 3.75e5.
Depletion of CG11726 resulted in: stable assay Renilla, run 1 (luminescence) = 6407; stable assay firefly, run 1 (luminescence) = 4.18e5.
After knock-down of CG17266 #1, the screen gave stable assay Renilla, run 1 (luminescence) = 7324; stable assay firefly, run 1 (luminescence) = 4.96e5.
Silencing of CG17266 #2 gave: stable assay Renilla, run 1 (luminescence) = 12062; stable assay firefly, run 1 (luminescence) = 7.95e5.
Pms2 showed stable assay Renilla, run 1 (luminescence) = 10929; stable assay firefly, run 1 (luminescence) = 5.59e5.
MSBP showed stable assay Renilla, run 1 (luminescence) = 7947; stable assay firefly, run 1 (luminescence) = 4.62e5.
Depletion of CG15564 came out at: stable assay Renilla, run 1 (luminescence) = 6855; stable assay firefly, run 1 (luminescence) = 4.13e5.
Rep gave stable assay Renilla, run 1 (luminescence) = 8191; stable assay firefly, run 1 (luminescence) = 3.15e5.
Silencing of CG11768 #1 resulted in: stable siRNA reporter change reporter ratio raised past the hit cutoff; stable assay Renilla, run 1 (luminescence) = 6815; stable assay firefly, run 1 (luminescence) = 2.10e5.
With knock-down of CG11768 #2 the results were stable assay Renilla, run 1 (luminescence) = 5206; stable assay firefly, run 1 (luminescence) = 3.75e5.
Against oxt, the values are stable assay Renilla, run 1 (luminescence) = 10456; stable assay firefly, run 1 (luminescence) = 3.74e5.
Jon99Ciii gave stable assay Renilla, run 1 (luminescence) = 6707; stable assay firefly, run 1 (luminescence) = 3.38e5.
Zw10 scored stable assay Renilla, run 1 (luminescence) = 7963; stable assay firefly, run 1 (luminescence) = 4.42e5.
Knock-down of Eig71Ea gave: stable assay Renilla, run 1 (luminescence) = 7386; stable assay firefly, run 1 (luminescence) = 4.30e5.
With knock-down of CG30088 the results were stable assay Renilla, run 1 (luminescence) = 8879; stable assay firefly, run 1 (luminescence) = 3.82e5.
For Gdh, the entry reads stable assay Renilla, run 1 (luminescence) = 10279; stable assay firefly, run 1 (luminescence) = 5.43e5.
With knock-down of mTerf5, the screen gave stable assay Renilla, run 1 (luminescence) = 6950; stable assay firefly, run 1 (luminescence) = 2.61e5.
CG14990 scored stable assay Renilla, run 1 (luminescence) = 6658; stable assay firefly, run 1 (luminescence) = 3.50e5.
With knock-down of exd the results were stable assay Renilla, run 1 (luminescence) = 4243; stable assay firefly, run 1 (luminescence) = 3.30e5.
ApepP gave stable assay Renilla, run 1 (luminescence) = 8400; stable assay firefly, run 1 (luminescence) = 2.22e6.
Knock-down of PGAP2 gave: stable assay Renilla, run 1 (luminescence) = 11966; stable assay firefly, run 1 (luminescence) = 5.85e5.
For RhoU #1, the values are stable assay Renilla, run 1 (luminescence) = 5519; stable assay firefly, run 1 (luminescence) = 3.81e5.
Depletion of RhoU #2 gave: stable assay Renilla, run 1 (luminescence) = 4312; stable assay firefly, run 1 (luminescence) = 3.33e5.
Silencing of RhoU #3 gave: stable siRNA reporter change reporter ratio raised past the hit cutoff (active); stable assay Renilla, run 1 (luminescence) = 5020; stable assay firefly, run 1 (luminescence) = 4.56e5.
Against RhoU #4 the deposit lists stable assay Renilla, run 1 (luminescence) = 8580; stable assay firefly, run 1 (luminescence) = 5.18e5.
Silencing of RhoU #5 gave: stable assay Renilla, run 1 (luminescence) = 4567; stable assay firefly, run 1 (luminescence) = 5.35e5.
For CG42537, the entry reads stable assay Renilla, run 1 (luminescence) = 5862; stable assay firefly, run 1 (luminescence) = 3.78e5.

A stretch taken from the entries so far:
RabX6 | stable assay Renilla, run 1 (luminescence): 5594; stable assay firefly, run 1 (luminescence): 3.85e5
CG30376 | stable assay Renilla, run 1 (luminescence): 4619; stable assay firefly, run 1 (luminescence): 3.75e5
CG11726 | stable assay Renilla, run 1 (luminescence): 6407; stable assay firefly, run 1 (luminescence): 4.18e5
CG17266 #1 | stable assay Renilla, run 1 (luminescence): 7324; stable assay firefly, run 1 (luminescence): 4.96e5
CG17266 #2 | stable assay Renilla, run 1 (luminescence): 12062; stable assay firefly, run 1 (luminescence): 7.95e5
Pms2 | stable assay Renilla, run 1 (luminescence): 10929; stable assay firefly, run 1 (luminescence): 5.59e5
